We go through 36 compounds from the supplement of paper PMC8256030.

“And” between values parts separate entries of the source, which are not always exact repeats. Identical values can stand only once. Counter-ions that a name gives are not always drawn. The list shows a part of the results. Single values are uncertain here, since repeats match poorly.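 HEK293T cells were given each compound shortly before transfection with a reporter in which red mCherry is followed by the SARS-CoV-2 frameshift element and then GFP in the −1 frame, so GFP appears only after frameshifting.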

The assay relates to SARS-CoV-2 -1 PRF reporter mCherry-FSE-GFP(-1). Briefly: mCherry (red) intensity as percent of control; higher = higher upstream reporter expression. As to conditions: 10 µM; 24 h; HEK293T.
`CCc1oc2ccccc2c1C(=O)c1ccc(O)cc1` [benzarone] had a mCherry of 88.7%.
For the compound `CCCCCCCCCCCCOCCCN` [laurixamine], the mCherry was found to be 89.7%.
Under `CC1(C)[C@@H](OC(=O)CCC(=O)O)CC[C@]2(C)[C@H]3C(=O)C=C4[C@@H]5C[C@@](C)(C(=O)O)CC[C@]5(C)CC[C@@]4(C)[C@]3(C)CC[C@@H]12` stands 99%; under `Cn1cnc2c1c(=O)[nH]c(=O)n2C`, 87.6%; under `Nc1nc2ccc(OC(F)(F)F)cc2s1` [riluzole], 97.6%.
Under `C[C@H]1[C@H](NC(=O)/C(=N\OC(C)(C)C(=O)O)c2csc(N)n2)C(=O)N1S(=O)(=O)O` [aztreonam] stands 131%; under `CC(=O)Oc1cc(C(F)(F)F)ccc1C(=O)O` [triflusal], 62.2%.
The compound `c1ccc(CN(CCN2CCCC2)c2ccccc2)cc1` [histapyrrodine] returned a mCherry of 71.1%.
For `CC1=C(/C=C/C(C)=C/C=C/C(C)=C/CO)C(C)(C)CCC1` [Vitamin A (Retinol)] the value was 78.4%; for `Cc1oc(=O)oc1CN1CCN(c2cc3c(cc2F)c(=O)c(C(=O)O)c2n3C(C)S2)CC1` (stereo unspecified) [prulifloxacin], 101%; for `Oc1ccccc1/C=N/Cc1ccccc1` [norletimol], 80.4%.
Consider `Clc1ccccc1CN1CCc2sccc2C1` [Ticlopidine], for which the mCherry amounted to 79%.
Under `Cc1cc(C(=O)NCCc2ccc(S(=O)(=O)NC(=O)NN3CCCCCC3)cc2)no1` [Glisoxepide] stands 93.4%; under `CCOC(=O)CCC(=O)O[C@H]1[C@H](O[C@@H]2[C@@H](C)[C@H](O[C@H]3C[C@@](C)(OC)[C@@H](O)[C@H](C)O3)[C@@H](C)C(=O)O[C@H](CC)[C@@](C)(O)[C@H](O)[C@@H](C)C(=O)[C@H](C)C[C@@]2(C)O)O[C@H](C)C[C@@H]1N(C)C`, 120%; under `O=c1[nH]c2ccccc2c2cc(CO)nn12` [pirquinozol], 71.7%.
Consider `O=C(O)C[C@H](O)C[C@H](O)/C=C/c1c(C2CC2)nc2ccccc2c1-c1ccc(F)cc1` [Pitavastatin], for which the mCherry was found to be 79.9%.
Under `CN/C(=N\c1ccc(C2=NNC(=O)CC2C)cc1)NC#N` (stereo unspecified) [siguazodan] stands 105%; under `CC(=O)Oc1ccc(C(=C2CCCCC2)c2ccc(OC(C)=O)cc2)cc1` [cyclofenil], 106%; under `CC(C)NCC(O)COc1cccc2c1N(C(=O)c1cccnc1)CCC2` (stereo unspecified) [nicainoprol], 95.8%.
For `CNC[C@H](O)[C@@H](O)[C@H](O)[C@H](O)CO` [meglumine] the value was 83.8%; for `CCC[C@@]1(CCc2ccccc2)CC(O)=C([C@H](CC)c2cccc(NS(=O)(=O)c3ccc(C(F)(F)F)cn3)c2)C(=O)O1` [tipranavir], 94.5%; for `CCCC(=O)O[C@]1(C(=O)COC(C)=O)CC[C@H]2[C@@H]3C[C@H](F)C4=CC(=O)C=C[C@]4(C)[C@@]3(F)[C@@H](O)C[C@@]21C` [difluprednate], 117%.
Under `C[C@@H](O)CCCCn1c(=O)c2c(ncn2C)n(C)c1=O` [lisofylline] stands 92.2%.
As to `CCOC(=O)NNc1nncc2ccccc12`, the mCherry amounted to 87.4%.
Under `NC(=O)N1CCC(CC(=O)N2CCC([C@H]3c4ncc(Br)cc4CCc4cc(Cl)cc(Br)c43)CC2)CC1` [lonafarnib] stands 34.1%; under `C[N+]1(C)[C@@H]2C[C@@H](OC(=O)C(O)(c3cccs3)c3cccs3)C[C@H]1[C@@H]1O[C@@H]12` [Tiotropium Bromide], 42.9%.
For `C=CCc1ccccc1OCC(O)CNC(C)C` (stereo unspecified) [Alprenolol·HCl] the value was 94.3%.
`CC(C)[C@H]1CC[C@H](C(=O)N[C@H](Cc2ccccc2)C(=O)O)CC1` [nateglinide]: the mCherry amounted to 99.1%.
For `CC[N+](C)(C)c1cccc(O)c1` [edrophonium chloride] the value was 113%; for `CC(SC(=O)c1cccs1)C(=O)NCC(=O)O` (stereo unspecified) [stepronin], 124%; for `C[C@H]1COc2c(C3(N)CC3)c(F)cc3c(=O)c(C(=O)O)cn1c23` [Pazufloxacin], 92.3%.
For the compound `CC(=O)N[C@@H](CCC(N)=O)C(=O)O` [aceglutamide], the mCherry was determined as 101%.
Under `CNCCCC1(c2ccccc2)OC(C)(C)c2ccccc21` (stereo unspecified) [talopram] stands 122%; under `NC(=O)N1c2ccccc2CC(=O)c2ccccc21` [oxcarbazepine], 79.4% and 67.3%; under `C=C1c2cccc(O)c2C(O)=C2C(=O)[C@]3(O)C(O)=C(C(N)=O)C(=O)[C@@H](N(C)C)[C@@H]3[C@@H](O)[C@H]12` [Methacycline], 32.3%.
As for `Cc1cccc(C)c1NC(=O)C1CCCCN1C` (stereo unspecified), the mCherry was determined as 95.8%.
